Source: PubChem BioAssay AID1347076 (National Center for Advancing Translational Sciences (NCATS), 2019)
Screen size: about 400,000 compounds; about 13,000 (3.2%) were called active. Inconclusive results, whose numbers are uncertain, are shown with a selection of clear calls. The call rests on the fitted dose curve; in most records, active means well fitted cell-killing curve with a large enough effect; inconclusive means small, poorly fitted or top-dose-only effect, or effect the other way; inactive means flat fitted curve, though single readings scatter. Potencies beside an inconclusive call are fits to weak or partial responses and may not hold up.

Experiment: qHTS assay for MDR1-selective chemotherapeutics: Primary screen using the drug-selected MDR subline cells KB-V1; further: nearly all actives have a fitted effect of over 60% in size
Settings: KB-V1 MDR cells viability, CellTiter-Glo, 72 h; series mostly up to 46.1 µM
Outline: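 Following 72 h at 37 degrees C with compound, KB-V1 cell viability was read by CellTiter-Glo luminescence, medium being phenol-red-free DMEM plus 10% FBS; concentration-response parameters came from normalized, curve-fitted qHTS data.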
Potency means the concentration at half of the fitted maximal effect.

**Q.** Which Potency does the source give for `COc1ccc2nc(SCC(=O)Nc3ccc4[nH]c(=O)[nH]c4c3)[nH]c2c1` here?
**A.** The Potency was inconclusive: 13 µM [rising, partial curve, poor fit].

**Q.** For `O=C(Nc1cc(Cl)ccc1Cl)c1ccco1`, which Potency is on record?
**A.** Its Potency is “inactive”.

**Q.** With `Fc1ccc(CSc2ccc3nnc(-c4ccccn4)n3n2)cc1` as the molecule, how does the Potency read?
**A.** The Potency was inconclusive: 9.2 µM [cytotoxic, partial curve].

**Q.** For `O=C1NC(=S)S/C1=C\c1cc(Cl)ccc1Cl`, which Potency is on record?
**A.** Its Potency is inconclusive: 29.1 µM [cytotoxic, single point].

**Q.** Which Potency does the source give for `COc1ccc2sc(N(CCCN(C)C)C(=O)c3ccc(S(=O)(=O)N4CCc5ccccc5C4)cc3)nc2c1` here?
**A.** The Potency was active: 23.1 µM.

**Q.** Which Potency does the source give for `Nc1ncnc(N2CCc3ccccc32)c1[N+](=O)[O-]` here?
**A.** The Potency was active: 13 µM.

**Q.** With `COc1ccc(C)c(S(=O)(=O)Nc2ccc(OCC(=O)O)cc2)c1` as the molecule, how does the Potency read?
**A.** The Potency was inconclusive: 18.4 µM [rising, single point].

**Q.** With `Cc1ccc2nc(-c3ccc(Cl)cc3)cc(C(=O)OCC(=O)c3ccccc3)c2c1` as the molecule, how does the Potency read?
**A.** Its Potency is inconclusive: 2.91 µM [cytotoxic, full curve].

**Q.** For `CC(C)(C)c1ccc(OCCNC(=O)c2ncn[nH]2)cc1`, which Potency is on record?
**A.** Its Potency is inconclusive: 7.31 µM [rising, partial curve, poor fit].

**Q.** For `COCCn1cnnc1SCC(=O)Nc1cc(C)on1`, which Potency is on record?
**A.** The Potency was inconclusive: 29.1 µM [rising, single point].

**Q.** Which Potency does the source give for `N/C(=N\OC(=O)CCc1ccccc1)c1ccc(Br)cc1` here?
**A.** Its Potency is “inactive”.

**Q.** Which Potency does the source give for `Cc1cc2oc(=O)c(CC(=O)NCCCO)c(C)c2c2occ(C(C)(C)C)c12` here?
**A.** The Potency was “inactive”.

**Q.** For `CCCCN(C)Cc1c(O)ccc2c(-c3ccccc3)cc(=O)oc12`, which Potency is on record?
**A.** Its Potency is active: 10.3 µM.

**Q.** Which Potency does the source give for `CSc1nc(N)c(C(=O)N(c2ccccc2)c2ccccc2)s1` here?
**A.** The Potency was inconclusive: 20.6 µM [cytotoxic, single point].

**Q.** With `COc1ccc(C(=O)NCCc2sc(-c3ccc(F)cc3)nc2C)cc1OC` as the molecule, how does the Potency read?
**A.** The Potency was “inactive”.

**Q.** With `CCc1ccc(C2Sc3ccccc3NC3=C2C(=O)c2ccccc23)cc1` (configuration not stated) as the molecule, how does the Potency read?
**A.** The Potency was inconclusive: 18.4 µM [cytotoxic, single point].

**Q.** For `CCc1nc2ccccc2c(C(=O)OCc2nc3ccccc3c(=O)[nH]2)c1C`, which Potency is on record?
**A.** Its Potency is inconclusive: 8.2 µM [cytotoxic, partial curve].

**Q.** Which Potency does the source give for `CCOC(=O)C1(Cc2cccc(OC)c2)CCCN(C(=O)c2cc(CC(C)C)[nH]n2)C1` (configuration not stated) here?
**A.** The Potency was inconclusive: 7.31 µM [cytotoxic, partial curve].

**Q.** For `COc1cc(S(=O)(=O)n2ccc(C)n2)c(C)cc1C`, which Potency is on record?
**A.** The Potency was “inactive”.

**Q.** For `CCc1nc(SCC(=O)c2ccc(Cl)s2)c2oc3ccccc3c2n1`, which Potency is on record?
**A.** Its Potency is inconclusive: 20.6 µM [cytotoxic, partial curve].

**Q.** Which Potency does the source give for `Cc1ccc(OCc2cc(C(=O)NC(C)Cc3cccc(C)n3)no2)cn1` (configuration not stated) here?
**A.** The Potency was inconclusive: 11.6 µM [cytotoxic, partial curve].

**Q.** For `CCN(CC(=O)Nc1c(F)cccc1F)C(=O)C1Cc2ccccc2CN1S(=O)(=O)CC` (configuration not stated), which Potency is on record?
**A.** Its Potency is “inactive”.

**Q.** For `CCC(=O)N1CCc2cc(S(=O)(=O)NCCC(=O)Nc3ccc(C)cc3)ccc21`, which Potency is on record?
**A.** Its Potency is “inactive”.

**Q.** Which Potency does the source give for `CC(=O)c1ccc(NS(=O)(=O)c2cc(-c3cc(C)no3)ccc2C)cc1` here?
**A.** The Potency was inconclusive: 6.51 µM [cytotoxic, full curve].

**Q.** With `CC1(C)Cc2c(C#N)c(SCC(=O)c3ccccc3)nc(N3CCOCC3)c2CO1` as the molecule, how does the Potency read?
**A.** The Potency was “inactive”.

**Q.** With `CCCNC(=O)CCNS(=O)(=O)c1ccc2c(c1)c(=O)n(C)c(=O)n2C` as the molecule, how does the Potency read?
**A.** The Potency was “inactive”.

**Q.** For `CCCCn1c(-c2nonc2NC(=O)c2ccccc2Cl)nc2ccccc21`, which Potency is on record?
**A.** The Potency was inconclusive: 1.64 µM [cytotoxic, full curve].

**Q.** With `C=CCN1C(=O)c2ccc(C(=O)OCC(=O)N3CCN(c4ccccc4)CC3)cc2C1=O` as the molecule, how does the Potency read?
**A.** Its Potency is “inactive”.

**Q.** For `O=C(OCCc1cc2ccccc2c(=O)o1)c1cccc(Br)c1`, which Potency is on record?
**A.** The Potency was inconclusive: 0.0046 µM [rising, full curve].

**Q.** With `CCCn1c(=O)c(C(=O)NCc2ccc3c(c2)OCO3)c(O)c2ccccc21` as the molecule, how does the Potency read?
**A.** The Potency was inconclusive: 20.6 µM [cytotoxic, single point].

**Q.** With `COc1ccc(/C=N/n2cnc3scc(-c4cccs4)c3c2=O)cc1OC` as the molecule, how does the Potency read?
**A.** The Potency was “inactive”.

**Q.** With `CC(=O)c1cccc(Nc2ccc3cc(S(=O)(=O)N4CCC(C)CC4)ccc3n2)c1` as the molecule, how does the Potency read?
**A.** The Potency was inconclusive: 13 µM [cytotoxic, partial curve].

**Q.** Which Potency does the source give for `Cc1cc(C)c(S(=O)(=O)N2CCN(C(=O)C3CCCO3)CC2)c(C)c1` (configuration not stated) here?
**A.** Its Potency is “inactive”.

**Q.** With `CN(CCOc1ccccc1)C(=O)CNC(=O)c1ccc(C(C)(C)C)cc1` as the molecule, how does the Potency read?
**A.** Its Potency is “inactive”.

**Q.** With `COc1cccc2cc(CC(=O)c3ccc(C)cc3C)c(=O)oc12` as the molecule, how does the Potency read?
**A.** Its Potency is inconclusive: 29.1 µM [cytotoxic, single point].

**Q.** For `CCN(CC)c1ccc(NC(=O)c2ccc3c(c2)OCO3)cc1`, which Potency is on record?
**A.** The Potency was inconclusive: 29.1 µM [cytotoxic, single point].

**Q.** Which Potency does the source give for `Cc1cccc(/N=C/c2c(O)[nH]c3ccccc23)n1` here?
**A.** Its Potency is “inactive”.

**Q.** With `CCCCCCn1c(N2CCN(c3ccccc3)CC2)nc2c1c(=O)[nH]c(=O)n2C` as the molecule, how does the Potency read?
**A.** Its Potency is inconclusive: 29.1 µM [cytotoxic, single point].

**Q.** For `Cc1ccc(C(=O)OCC(=O)Nc2ccc3c(c2)OCO3)c(O)c1`, which Potency is on record?
**A.** Its Potency is inconclusive: 29.1 µM [rising, single point].

**Q.** For `CCc1nnnn1-c1ccc([N+](=O)[O-])cc1C`, which Potency is on record?
**A.** Its Potency is “inactive”.

**Q.** With `Cc1ccc(CSc2ncnc3c2cnn3-c2ccccc2)cc1` as the molecule, how does the Potency read?
**A.** The Potency was inconclusive: 23.1 µM [cytotoxic, single point].

**Q.** With `CN(CCN(C)C(=O)c1[nH]cnc1C(=O)Nc1ccccc1)C(=O)c1[nH]cnc1C(=O)Nc1ccccc1` as the molecule, how does the Potency read?
**A.** Its Potency is inconclusive: 29.1 µM [rising, single point].

**Q.** For `Cn1c(=O)[nH]c(=O)c2c1nc(CN1CCN(c3ccc(F)cc3)CC1)n2CCCc1ccccc1`, which Potency is on record?
**A.** The Potency was inconclusive: 7.31 µM [cytotoxic, partial curve].

**Q.** With `CCOC(=O)/C(=C\c1ccc([N+](=O)[O-])o1)NC(=O)c1ccccc1` as the molecule, how does the Potency read?
**A.** The Potency was inconclusive: 29.1 µM [cytotoxic, single point].

**Q.** Which Potency does the source give for `Cc1cccc(C)c1NC(=S)NC(C)CCc1ccccc1` (configuration not stated) here?
**A.** Its Potency is inconclusive: 29.1 µM [cytotoxic, single point].

**Q.** For `Cc1cccc(NCc2nc3ccccc3n2CCOc2ccccc2C)c1`, which Potency is on record?
**A.** The Potency was “inactive”.

**Q.** Which Potency does the source give for `CCCN(CC(=O)c1cc(C)n(C)c1C)S(=O)(=O)c1cccc(C(F)(F)F)c1` here?
**A.** Its Potency is inconclusive: 8.2 µM [cytotoxic, partial curve].
